Results as given in the supplement of paper PMC3334620.
The full ranking holds about 33,000 sequences; the median of “E-score (-0.5 to 0.5)” is about -0.0059, and the highest 2% start at about 0.26. The list shows a part of the results.

These sequences were tested against T1, Cin5 (UniProt P40917) (assay: PBM E-score (8-mer binding enrichment) (E-score (-0.5 to 0.5)); higher = stronger / more preferred TF binding). Conditions: protein concentration: 100 nM; construct: GST-full length.
T1 sequence: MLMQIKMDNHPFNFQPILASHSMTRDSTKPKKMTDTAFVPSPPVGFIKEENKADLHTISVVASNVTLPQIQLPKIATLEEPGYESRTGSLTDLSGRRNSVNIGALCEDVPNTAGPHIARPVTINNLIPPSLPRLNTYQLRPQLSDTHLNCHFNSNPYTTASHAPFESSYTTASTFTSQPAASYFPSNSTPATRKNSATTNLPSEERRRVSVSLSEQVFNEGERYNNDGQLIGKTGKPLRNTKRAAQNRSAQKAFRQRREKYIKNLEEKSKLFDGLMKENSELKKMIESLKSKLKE
How it was run: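 Using PURExpress in vitro transcription/translation, GST-tagged yeast transcription factors were made in full-length or DNA-binding-domain form. These were applied at about 100-200 nM to double-stranded universal all-10-mer Agilent arrays, and bound protein was detected with fluorescent anti-GST. Scans were normalised with masliner before the Universal PBM Analysis Suite assigned E-scores to ungapped eight-base words pooled with their reverse complements.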

| Sequence | PBM E-score |
| --- | --- |
| ATGCTCGG | 0.0708 |
| TTAGTCAA | 0.0995 |
| GATCTGTA | 0.121 |
| AGGTCATG | -0.054 |
| GTATCTGA | 0.0655 |
| CCGTGACA | 0.0327 |
| AGGCTTTG | -0.135 |
| CGGGTGGC | -0.217 |
| CAAGTGAA | -0.0255 |
| TGAACGAA | -0.0612 |
| ATACACCC | 0.0362 |
| ACTCACCC | 0.00023 |
| ACTCCGCC | 0.0503 |
| TAGAACGA | -0.0153 |
| AATATGTA | 0.196 |
| AGGTTCGC | -0.276 |
| ACGACAGG | 0.0411 |
| AAGAGAAG | -0.0313 |
| AGCGTTGC | -0.0908 |
| TAATCGCA | 0.294 |
| AGTCAGAG | -0.0527 |
| AGTGTTGC | 0.132 |
| CAACGGCG | -0.0924 |
| GGAGTCCA | -0.211 |
| TAATTAAA | 0.068 |

Single entries from the entries so far:
In PBM E-score, CCGTGACA shows 0.0327
In PBM E-score, AATATGTA shows 0.196
In PBM E-score, GGAGTCCA shows -0.211
In PBM E-score, GTATCTGA shows 0.0655
In PBM E-score, CAAGTGAA shows -0.0255
In PBM E-score, AGGTTCGC shows -0.276

More entries:

| Sequence | PBM E-score |
| --- | --- |
| ATCATTGG | 0.13 |
| CATCCCTC | -0.00976 |
| TAAATGCA | 0.175 |
| AGGTTCCA | -0.0989 |
| AATGCGGT | -0.0647 |
| CCTCCAGA | -0.0797 |
| AGGCAGAT | 0.0693 |
| ACTCGGGG | -0.103 |
| ACATCGCT | 0.0356 |
| CGGCAAAC | 0.0939 |
| GGACTGTA | -0.109 |
| GCTCAGGA | -0.136 |
| AAAGTGTT | 0.149 |
| ACGAAGTA | 0.0511 |
| CGTTTTAG | -0.206 |
| GGACCACA | -0.0168 |
| CAGCTTCG | 0.00093 |
| GCGAGTTA | 0.166 |
| GACTTCGA | -0.0998 |
| CGCAACCG | -0.153 |
| GATTTAGA | -0.0705 |
| AGTCCGCC | -0.123 |
| CACGTACA | -0.141 |
| ATAGTAAG | 0.236 |
| CGGGGTGA | 0.134 |

| Sequence | PBM E-score |
| --- | --- |
| AGCGAGGC | -0.157 |
| AAGCGTAC | -0.0414 |
| ATAGGATG | 0.209 |
| AATCTATA | 0.163 |
| CATTGGAC | -0.083 |
| AGCCTACG | 0.0355 |
| CGTAAATC | 0.0715 |
| TGAGGCCA | 0.0508 |
| CGAGGTTA | 0.0708 |
| CCTTTTTA | -0.00478 |
| ACTGTGCA | -0.123 |
| AAAACCTC | 0.145 |
| GAGGGAGA | -0.17 |
| CGCCCTGC | -0.0782 |
| ATTAAGCA | 0.112 |
| CAGTGCTC | -0.121 |
| TCGGTGAA | -0.0666 |
| AAGCTTAC | 0.282 |
| TAACATGA | 0.071 |
| CGGTTCGC | -0.0697 |
| AAGGCGTA | -0.133 |
| CCAAATGG | -0.0984 |
| CGAGCAGC | 0.0622 |
| GAGGATCA | -0.0895 |
| GTGGTTGA | -0.0708 |

| Sequence | PBM E-score |
| --- | --- |
| TGCGGCCA | -0.148 |
| AGATGGAA | 0.167 |
| AATTTAGT | 0.284 |
| GCTTCGAC | -0.146 |
| ACGTAGGG | -0.142 |
| ATAGGCTG | -0.0375 |
| AGCCTTGC | -0.0563 |
| ACTATGTC | -0.0438 |
| AGTCAGGG | -0.227 |
| CCTGAGGA | 0.0203 |
| CAAGTGGA | 0.0672 |
| AAACTTTA | 0.151 |
| AATCTGGT | 0.22 |
| CACAACAA | -0.0522 |
| CGTACTAC | -0.00888 |
| AGCCGGAT | -0.0226 |
| GAAACTTA | 0.214 |
| CGTAGAAA | -0.0929 |
| AGGAAGCA | -0.243 |
| AGATTCAT | -0.0102 |
| AGTTTTTA | -0.12 |
| CAGTCGCC | -0.129 |
| TGAACCCA | 0.0303 |
| AATAGGTG | -0.0223 |
| ACCCCTAC | 0.00351 |

| Sequence | PBM E-score |
| --- | --- |
| CTTGGACA | -0.116 |
| AAAAACAT | 0.111 |
| AGCCCTAT | -0.146 |
| CTTACACC | -0.0748 |
| TAGTCCGA | -0.0594 |
| GCTCAGCA | -0.0162 |
| GACCAAAC | -0.173 |
| AAGTATTA | 0.0531 |
| ACACCCGC | 0.127 |
| AGAGGAGC | -0.233 |
| AACAGTTA | 0.099 |
| CCGCGAAC | 0.0232 |
| AATCCATG | 0.0693 |
| ACGCGCCG | -0.0779 |
| AAATTCAT | 0.0992 |
| ATCGTCCG | 0.0229 |
| ACTTCATG | 0.0471 |
| CACCCGTA | -0.0406 |
| ACAGCCAC | 0.0393 |
| CACCCTGG | -0.195 |
| CCTCATGC | -0.137 |
| AGGGCACT | -0.249 |
| GCTACGCC | -0.319 |
| GAGGGAAA | -0.152 |
| ATCTCTTG | -0.0398 |

| Sequence | PBM E-score |
| --- | --- |
| CTCCCATA | -0.0777 |
| ATTGCAGA | 0.00865 |
| CCGTAACC | 0.0324 |
| CCCAGACG | -0.0437 |
| ACTCTGAG | -0.0227 |
| CCCCTTTA | -0.195 |
| CGGTCGTC | -0.131 |
| ACCATGGT | -0.0835 |
| CACGGGAA | -0.0678 |
| CCCCCACC | -0.454 |
| ATACTCTC | 0.0894 |
| GAGAACCA | -0.0076 |
| ATACCCCC | -0.346 |
| CGGGAAAC | 0.0271 |
| AGGCTCAG | -0.221 |
| CCTAGGTA | -0.0942 |
| GGCGGAAA | 0.088 |
| AGGACATA | 0.0165 |
| GTATCCTA | -0.134 |
| GACATAAA | 0.239 |
| GTCCTGTA | -0.101 |
| CACAGACG | -0.00259 |
| TACATGAA | 0.0703 |
| CACCTCGG | -0.0365 |
| ACTGGACT | -0.093 |

| Sequence | PBM E-score |
| --- | --- |
| GGAACTCC | 0.0855 |
| AGTAGCTC | -0.109 |
| ATATGCCG | 0.141 |
| GTAAATAA | 0.189 |
| TAGTTTCA | 0.231 |
| GACAGTCA | -0.165 |
| GCCCGTCC | -0.242 |
| ACTTCTAA | -0.123 |
| ACGGTACG | -0.0614 |
| TACTTGCA | 0.141 |
| AGGTTCTG | -0.145 |
| CCTACATA | -0.0197 |
| GGGTCTGA | -0.0937 |
| AGTCGAAA | 0.0984 |
| GTGGCATA | 0.0881 |
| TGCCAGAA | -0.0023 |
| GAGAAGAA | 0.0328 |
| AGCGATTG | -0.0501 |
| ACTGAGAG | -0.196 |
| GTACCCGA | -0.233 |
| ACACTGCT | -0.102 |
| CTCTCCGA | -0.256 |
